Among the data in PMC4278290 are binding values, retold here.

Experiment [1] addresses T1, EFEMP1 carrying a FLAG tag at the C-terminus (E-CF) (human) (UniProt Q12805).
T1 sequence: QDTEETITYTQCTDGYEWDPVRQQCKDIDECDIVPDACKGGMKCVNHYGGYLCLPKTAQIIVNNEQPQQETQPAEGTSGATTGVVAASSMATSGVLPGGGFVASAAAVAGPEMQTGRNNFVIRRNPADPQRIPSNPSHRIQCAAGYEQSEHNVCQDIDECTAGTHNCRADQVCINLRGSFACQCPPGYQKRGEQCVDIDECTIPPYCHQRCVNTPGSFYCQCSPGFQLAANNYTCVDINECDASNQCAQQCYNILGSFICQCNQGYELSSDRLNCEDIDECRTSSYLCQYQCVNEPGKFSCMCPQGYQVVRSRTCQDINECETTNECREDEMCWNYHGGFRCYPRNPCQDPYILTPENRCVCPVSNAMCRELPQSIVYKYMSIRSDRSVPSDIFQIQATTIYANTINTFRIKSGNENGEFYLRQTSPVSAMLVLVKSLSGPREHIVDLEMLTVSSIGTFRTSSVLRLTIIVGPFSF
As to the kind of experiment: co-IP; whole-cell lysates in RIPA buffer (~500 ug protein in 260 ul) of U251 stable EFEMP1 transfectants; precipitated with 40 ul mouse anti-FLAG M2 affinity gel, 4 °C overnight; immunoblot for EGFR and FLAG; mouse IgG agarose as negative control.

In experiment [2] the target is T2, EFEMP1 carrying a FLAG tag at the N-terminus (E-NF) (human) (UniProt Q12805).
T2 sequence: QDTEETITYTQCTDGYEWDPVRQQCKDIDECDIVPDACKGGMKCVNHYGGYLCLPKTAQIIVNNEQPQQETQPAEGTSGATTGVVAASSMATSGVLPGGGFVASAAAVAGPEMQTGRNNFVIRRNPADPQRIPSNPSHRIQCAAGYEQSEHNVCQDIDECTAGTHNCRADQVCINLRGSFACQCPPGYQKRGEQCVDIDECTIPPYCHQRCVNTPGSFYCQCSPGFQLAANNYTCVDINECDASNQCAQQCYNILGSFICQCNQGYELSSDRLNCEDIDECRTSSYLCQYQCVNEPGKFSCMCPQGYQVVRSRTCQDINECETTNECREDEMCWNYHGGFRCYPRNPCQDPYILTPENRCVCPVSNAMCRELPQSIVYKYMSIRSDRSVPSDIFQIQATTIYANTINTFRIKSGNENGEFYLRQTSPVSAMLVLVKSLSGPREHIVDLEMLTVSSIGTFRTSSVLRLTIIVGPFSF
The description is as above.

Experiment [3] addresses EGFR (human (endogenous in U251)) (UniProt P00533). As to the kind of experiment: co-IP; whole-cell lysates in RIPA buffer (~500 ug protein in 260 ul) of U251 stable EFEMP1 transfectants; precipitated with 5 ug rabbit anti-EGFR antibody and protein A/G beads, 4 °C overnight; immunoblot for EFEMP1 and FLAG; rabbit IgG agarose as negative control.

These are yes or no findings as the source states them, for the method shown. Binding seen in cells or lysates may run through a third protein. A result given as binding can be weak or reduced; the word gives no strength. Where a sequence is shown, tags or fusion partners need not be part of it.

Take EGFR (from UniProt P00533) (receptor): the binding result in experiment [1] and in experiment [2] was “binds” in each case.

B1: EFEMP1 carrying a FLAG tag at the C-terminus (E-CF) (protein, UniProt Q12805 18-493)
chain: QDTEETITYTQCTDGYEWDPVRQQCKDIDECDIVPDACKGGMKCVNHYGGYLCLPKTAQIIVNNEQPQQETQPAEGTSGATTGVVAASSMATSGVLPGGGFVASAAAVAGPEMQTGRNNFVIRRNPADPQRIPSNPSHRIQCAAGYEQSEHNVCQDIDECTAGTHNCRADQVCINLRGSFACQCPPGYQKRGEQCVDIDECTIPPYCHQRCVNTPGSFYCQCSPGFQLAANNYTCVDINECDASNQCAQQCYNILGSFICQCNQGYELSSDRLNCEDIDECRTSSYLCQYQCVNEPGKFSCMCPQGYQVVRSRTCQDINECETTNECREDEMCWNYHGGFRCYPRNPCQDPYILTPENRCVCPVSNAMCRELPQSIVYKYMSIRSDRSVPSDIFQIQATTIYANTINTFRIKSGNENGEFYLRQTSPVSAMLVLVKSLSGPREHIVDLEMLTVSSIGTFRTSSVLRLTIIVGPFSF
Regarding B1, the binding entry in experiment [3] is recorded as “binds”.

B2: EFEMP1 carrying a FLAG tag at the N-terminus (E-NF) (protein, UniProt Q12805 18-493)
chain: QDTEETITYTQCTDGYEWDPVRQQCKDIDECDIVPDACKGGMKCVNHYGGYLCLPKTAQIIVNNEQPQQETQPAEGTSGATTGVVAASSMATSGVLPGGGFVASAAAVAGPEMQTGRNNFVIRRNPADPQRIPSNPSHRIQCAAGYEQSEHNVCQDIDECTAGTHNCRADQVCINLRGSFACQCPPGYQKRGEQCVDIDECTIPPYCHQRCVNTPGSFYCQCSPGFQLAANNYTCVDINECDASNQCAQQCYNILGSFICQCNQGYELSSDRLNCEDIDECRTSSYLCQYQCVNEPGKFSCMCPQGYQVVRSRTCQDINECETTNECREDEMCWNYHGGFRCYPRNPCQDPYILTPENRCVCPVSNAMCRELPQSIVYKYMSIRSDRSVPSDIFQIQATTIYANTINTFRIKSGNENGEFYLRQTSPVSAMLVLVKSLSGPREHIVDLEMLTVSSIGTFRTSSVLRLTIIVGPFSF
Regarding B2, in experiment [3], the binding entry is “binds”.
